Chains of the proteins cited; added tags and fusions are not shown. Lines headed by an entry give the natural chain unless they say otherwise; changes in a name come on top.
UniProt P25094: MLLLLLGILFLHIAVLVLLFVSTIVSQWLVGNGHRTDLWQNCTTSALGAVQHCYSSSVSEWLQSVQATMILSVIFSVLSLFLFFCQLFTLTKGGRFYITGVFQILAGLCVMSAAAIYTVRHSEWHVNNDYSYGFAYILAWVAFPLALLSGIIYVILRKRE

Inconclusive results, whose numbers are uncertain, are shown with a selection of clear calls. Potencies of inconclusive entries are doubtful fits and often do not repeat. The source made the active and inactive calls. The call rests on the fitted dose curve; in most records, active means well fitted inhibition curve with a large enough effect; inconclusive means small, poorly fitted or top-dose-only effect; inactive means no such curve, though single readings can be large or run the other way.
The molecules below were run against Peripheral myelin protein 22 (Rattus norvegicus) (UniProt P25094) (assay: Cell-based HiBiT reporter assay to measure PMP22 protein expression in S16 Pmp22-HiBiT cells). Conditions: S16 Schwann Pmp22-HiBiT, NanoGlo luminescence, 48 h; activity change, negative = inhibition: at 27.9 µM (top of the series).
Description: Assay Provider: Jim Inglese Ph.D. National Center for Advancing Translational Science, National Institutes of Health, Rockville, MD CMT is a heterogeneous group of neurological disorders that affect approximately 1 in 2,500 people. In particular, the most common form of CMT, CMT1A is genetically linked to the duplication of the PMP22 gene which leads to Schwann cell overexpression, thus manifesting itself as a typical case of dose-sensitive diseases. To identify small molecule compounds that can mediate the expression of PMP22 we developed a phenotypic assay screening strategy by utilizing genome editing techniques to construct Schwann cell lines containing novel reporter technology to monitor the transcriptional or translational regulation of PMP22. For high sensitivity we use a bioluminescent reporter system embedded in the 3' UTR of the PMP22 gene (S16(c9) Pmp22-F2sN) to identify compounds that inhibit gene expression. […] We can further discriminate the effect of all transcriptionally active molecules on PMP22 translation or stability with an assay that incorporates a short NLuc peptide (HiBiT) at the C-terminus of expressed PMP22 (S16(f8) PMP22-HiBiT) allowing alpha complementation and luminescence detection of membrane-associated PMP22 protein. These assays were screened against the NCATS Sytravon Library Collection. Miniaturization of these assays to 1536-well plate format for quantitative high throughput screening (qHTS) yielded rich data sets immediately from the qHTS assay (S16(c9) Pmp22-F2sN), when compared with data from a cell viability assay (Cell TiterGlo) to identify compounds that decreased the output signals through cellular toxicity to streamline the selection process of actives for subsequent characterization using the HiBiT assay (S16(f8) PMP22-HiBiT).
Cell-based HiBiT reporter assay in S16 Pmp22-HiBiT cells PROTOCOL TABLE (format as described by Inglese J, Shamu CE and Guy RK. 2007) SEQUENCE No. (e.g., 1, 2, 3, etc.); PARAMETER (e.g., Cells, Incubation, Reagent, etc.); VALUE and DESCRIPTION. 1. Cells. Add 1,500 cells in 5 uL in growth media (DMEM High Glucose, No Phenol Red media + 10% heat-inactivated FBS + 1% Pen/Strep supplemented media) per well into Greiner 1536-well white/solid bottom high base, TC-treated plates. 2. Compounds. Library compounds and controls added at 23nL per well, transferred by Pin Tool. 3. Incubation. Incubate plates at 37C, 5% CO2, 95% RH for 48 h. 4. Media removal. Invert and centrifuge plates. 5. Reagent. Add 3uL NanoGlo HiBiT Lytic Detection Reagent per well of Greiner 1536-well plates. 6. Incubation. Incubate plates at room temperature for 15 min., protect from light. 7. Detector. NLuc luminescence measured using CCD-based camera (Viewlux). NOTES (numbers refer to Sequence numbers above; values are from representative experiments) 7. Luminescence Read: Clear filter; Exposure = 10 sec, Gain = High, Speed = Slow, Binning = 2X REFERENCES: 1. Inglese J, Shamu CE and Guy RK, Reporting data from high throughput screening of small molecule libraries, Nature Chemical Biology, 2007, 3(8): 438-441. doi.org/10.1038/nchembio0807-438 2. Yasgar A, Shinn P, Jadhav A, Auld DS, Michael S, Zheng W, Austin CP, Inglese J and Simeonov A, Compound Management for Quantitative High-Throughput Screening. J. Assoc. Lab. Auto., 2008, 13: 79-89. doi: 10.1016/j.jala.2007.12.004
In the case of `COc1ccc(NC(=O)c2nc(S(=O)(=O)Cc3ccc(C)cc3)ncc2Cl)cc1`, the Potency is reported as active: 10.2 µM.
`CCc1ccccc1Nc1nn2c(=O)c3ccc(C(=O)Nc4cc(C)cc(C)c4)cc3nc2s1` was tested, and the Potency was inconclusive: 8.13 µM [inhibitor, partial curve, poor fit].
`CCCC1=Nc2cc(C(=O)NC3CCCCC3)ccc2Sc2ccc(C)cc21` was tested, and the Potency was inconclusive: 0.204 µM [inhibitor, full curve].
For `O=C(CCS(=O)(=O)c1nc(-c2cccs2)cc(C(F)(F)F)n1)Nc1ccc(F)c(Cl)c1`, the Potency was inconclusive: 4.57 µM [inhibitor, partial curve].
For `O=S(=O)(NCC(c1ccco1)S(=O)(=O)c1cccs1)c1ccc(Cl)cc1` (stereo not given), the Potency was inconclusive: 3.63 µM [inhibitor, full curve].
For `COc1ccccc1-c1cc(C(F)(F)F)nc(S(=O)(=O)CCCC(=O)Nc2ccccc2F)n1`, the Potency was active: 10.2 µM.
With `Cc1ccccc1S(=O)(=O)Cc1ccc(C(=O)N2CCN(c3cccc(Cl)c3)CC2)o1` the Potency was inconclusive: 10.2 µM [inhibitor, partial curve].
In the case of `COc1ccc(C)cc1NS(=O)(=O)c1ccc(-c2cnc(C3CC3)o2)cc1`, the Potency is reported as inconclusive: 0.162 µM [inhibitor, full curve].
With `COc1ccc(NC(=O)c2oc3ccccc3c2NC(=O)Cc2ccc(F)cc2)c(OC)c1` the “activity change, negative = inhibition” value was inactive: 30.2%.
For `CCC(=O)N1CCc2cc(S(=O)(=O)CCC(=O)Nc3ccc(Cl)c(C(F)(F)F)c3)ccc21`, the Potency was inconclusive: 6.45 µM [inhibitor, full curve].
With `COc1ccc(NC(=O)Cn2c(=O)n(CCC(=O)NCc3ccccc3OC)c(=O)c3ccccc32)cc1Cl` the Potency was inconclusive: 14.5 µM [inhibitor, single point].
With `CCOc1ccc(C(=O)c2cnc3ccc(Cl)cc3c2S(=O)(=O)c2ccc(C)cc2)cc1` the Potency was inconclusive: 10.2 µM [inhibitor, partial curve].
In the case of `COCCCNC(=O)c1ccc2c(c1)N=C(C)c1c(C)ccc(C)c1S2`, the Potency is reported as inconclusive: 0.0912 µM [inhibitor, full curve].
With `Cn1c(=O)oc2cc(S(=O)(=O)N3CCCC(C(=O)N4CCN(c5ccc(Cl)cc5)CC4)C3)ccc21` (stereo not given) the Potency was active: 4.07 µM.
With `CCCN1CCN(CCCNC(=O)Cn2c(-c3cccs3)cc3ccccc32)CC1` the Potency was inconclusive: 1.45 µM [inhibitor, full curve].
`COc1ccc(Br)cc1CC1C(=O)Nc2ccccc21` (stereo not given) was tested, and the Potency was active: 9.12 µM.
`Cc1ccc(CS(=O)(=O)c2ncc(Cl)c(C(=O)Nc3nc4ccc(F)cc4s3)n2)cc1` was tested, and the Potency was inconclusive: 4.57 µM [inhibitor, full curve].
With `CCN(CC)CCNC(=O)c1cc(-c2ccc(Br)s2)nc2ccccc12` the “activity change, negative = inhibition” value was inactive: -2.44%.
With `O=C(Cn1c(-c2cccs2)cc2cc(F)ccc21)NCCCN1CCN(c2ccccc2F)CC1` the Potency was active: 12.9 µM.
With `CC(=O)N1CCc2c(sc(NC(=O)CSc3ccccc3)c2-c2nc3ccccc3s2)C1` the Potency was active: 16.2 µM.
In the case of `COc1ccc(-c2noc(CSc3nnc(-c4ccncc4)n3-c3ccc(C)cc3)n2)cc1`, the Potency is reported as inconclusive: 4.07 µM [inhibitor, full curve].
`O=C(Cn1c(-c2cccs2)cc2cc(F)ccc21)NCCCN1CCN(c2ccc(F)cc2)CC1` was tested, and the Potency was inconclusive: 4.57 µM [inhibitor, full curve].
`CCN(CC)c1ccc(NC(=O)C2COc3ccc(OC)cc3C2)c(C)c1` (stereo not given) was tested, and the Potency was inconclusive: 1.29 µM [inhibitor, full curve].
With `COc1ccc(-c2cc(C(F)(F)F)nc(S(C)(=O)=O)n2)cc1` the Potency was inconclusive: 11.5 µM [inhibitor, partial curve].
For `O=C(CCS(=O)(=O)c1nc(-c2cccs2)cc(C(F)(F)F)n1)Nc1ccc(OC(F)(F)F)cc1`, the Potency was inconclusive: 18.2 µM [inhibitor, partial curve, poor fit].
For `Cc1cc(NC(=O)C2CCCN(S(=O)(=O)c3cccc4nonc34)C2)ccc1Br` (stereo not given), the Potency was inconclusive: 0.0026 µM [inhibitor, full curve].
In the case of `CCOC(=O)c1cc2c(=O)n3ccccc3nc2n(Cc2ccco2)c1=NC(=O)c1cc(C)cc(C)c1`, the Potency is reported as inconclusive: 1.62 µM [inhibitor, full curve].
In the case of `COc1ccccc1CNC(=O)CSc1nnc(C)c2c(C)n(-c3ccccc3)nc12`, the Potency is reported as inconclusive: 7.24 µM [inhibitor, full curve].
For `COc1ccccc1NC(=O)Cn1c(=O)n(-c2cccc(Cl)c2)c(=O)c2sc3ccccc3c21`, the Potency was inconclusive: 5.75 µM [inhibitor, full curve].
In the case of `CCc1ccc(NC(=O)Cn2c(=O)n(-c3ccc(OC)cc3)c(=O)c3ccc(C(=O)NCc4ccc(C)cc4)cc32)cc1`, the “activity change, negative = inhibition” value is reported as inactive: -22.4%.
In the case of `Cn1c(=O)oc2cc(S(=O)(=O)N3CCCC(C(=O)N4CCN(c5cccc(Cl)c5)CC4)C3)ccc21` (stereo not given), the Potency is reported as inconclusive: 5.13 µM [inhibitor, full curve].
In the case of `CCCCOc1ccc(CN2C(=O)C(=O)c3cc(Br)cc(C)c32)cc1OC`, the Potency is reported as inconclusive: 5.75 µM [inhibitor, full curve].
For `CCC1=Nc2cc(C(=O)NCCCOC)ccc2Sc2ccc(Br)cc21`, the Potency was inconclusive: 0.363 µM [inhibitor, full curve].
`COC(=O)c1c(-c2ccc(Cl)cc2)noc1N1CCN(c2cc(C)ccc2C)CC1` was tested, and the Potency was inconclusive: 5.13 µM [inhibitor, partial curve].
With `COc1ccccc1-c1cc(C(F)(F)F)nc(S(=O)(=O)CCCC(=O)Nc2ccc(F)cc2F)n1` the Potency was active: 5.13 µM.
For `Cc1cccc(Nc2c3c(nc4nncn24)CCC3)c1C`, the “activity change, negative = inhibition” value was inactive: -20.4%.
In the case of `COc1ccccc1Nc1c2c(nc3ccc(NC(=O)/C=C/c4cccc(OC)c4OC)cc13)CCCC2`, the Potency is reported as active: 5.13 µM.
For `Cc1ccc(OCC(=O)Nc2ccc3nc(SCC(=O)N4CCc5ccccc54)sc3c2)cc1`, the Potency was inconclusive: 4.57 µM [inhibitor, full curve].
In the case of `O=C(c1ccc(CS(=O)c2ccccc2Cl)o1)N1CCN(c2cccc(C(F)(F)F)c2)CC1` (stereo not given), the Potency is reported as inconclusive: 0.363 µM [inhibitor, full curve].
For `Cc1ccc(C)c(NC(=O)Cn2c(=O)n(Cc3ccccc3)c(=O)c3oc4ccccc4c32)c1`, the Potency was active: 14.5 µM.
